The whole screen tested about 220,000 compounds, of which about 770 (0.35%) were called active. The inconclusive results got no clear call from the source; some entries with a clear call stand among them for comparison. Rule as the data show it: active = binding response below about 49% or above about 150%; inconclusive = no clear call, values can overlap the other calls; inactive = in between.
What follows are compounds tested against Guanine nucleotide-binding protein G(o) subunit alpha (Homo sapiens) (UniProt P09471) (assay: RGS7-Galphao binding modulators, primary screen, biochemical, multiplexed bead flow cytometry (AID 1439;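 also: fluorescent Galphao held in activated GDP-AlF4 state binding bead-coupled RGS7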)). Details: at 10 µM, actives lie on both sides.

Protein sequences, listed by entry. Tags and fused reporters are not part of them.
UniProt P09471, whole entry, looked up: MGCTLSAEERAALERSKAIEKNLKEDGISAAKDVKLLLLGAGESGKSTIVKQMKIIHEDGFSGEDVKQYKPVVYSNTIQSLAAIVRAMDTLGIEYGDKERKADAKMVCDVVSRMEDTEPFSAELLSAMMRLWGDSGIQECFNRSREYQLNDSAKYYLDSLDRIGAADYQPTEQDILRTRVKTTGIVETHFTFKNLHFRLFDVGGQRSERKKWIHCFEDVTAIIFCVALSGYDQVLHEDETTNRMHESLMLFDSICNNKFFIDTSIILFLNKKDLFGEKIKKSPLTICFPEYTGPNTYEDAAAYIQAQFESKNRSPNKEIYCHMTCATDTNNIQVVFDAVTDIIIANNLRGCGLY

Row | SMILES | binding response (% of control)
1 | Cc1ccc(S(=O)(=O)N2CCN(C(=S)NCc3ccc4c(c3)OCO4)CC2)cc1 | inactive: 98.9%
2 | O=c1[nH]c2c(Br)cnc([N+](=O)[O-])c2[nH]1 | inconclusive: 96.9%
3 | CCOC(=O)C1=NN(c2ccc(OC)cc2)C2C(=O)N(c3ccccc3OC)C(=O)C12 (stereo not drawn) | inconclusive: 87.1%
4 | Cc1cc(C)c2[nH]c(C(=O)Nc3ccc4c(c3)OCO4)cc2c1 | inconclusive: 93.6%
5 | COc1ccc(NC(=O)Cn2c(=O)n(-c3ccc(CC(=O)NCc4ccco4)cc3)c(=O)c3ccccc32)cc1 | inconclusive: 101%
6 | CCN1CCN(C(=O)NC(c2ccc(C)c(F)c2)C(Cl)Cl)CC1 (stereo not drawn) | inconclusive: 84%
7 | Cc1ccc(C2Nc3ccccc3C(=O)N2CCCN2CCOCC2)cc1 (stereo not drawn) | inconclusive: 64%
8 | CCOCCCNC(=O)c1ccc2c(=O)n(Cc3ccc(OC)cc3)c(=O)[nH]c2c1 | inactive: 102%
9 | CCCNC(=O)CN1C(=O)NC(Cc2c[nH]c3ccccc23)C1=O (stereo not drawn) | inconclusive: 111%
10 | O=C(NCC1CCCO1)c1ccc(CSCc2cccc(F)c2)o1 (stereo not drawn) | inactive: 98.2%
11 | C/C(=N\O)c1ccn(S(=O)(=O)c2ccc(Cl)cc2)c1 | inconclusive: 108%
12 | O=C(NNC(=O)C1CCN(S(=O)(=O)c2cccc(Cl)c2)CC1)C1CC1 | inconclusive: 100%
13 | COc1cc(OC)c2ccc(=O)oc2c1C(CC(=O)N1CCN(c2ccccc2)CC1)c1ccc2c(c1)OCO2 (stereo not drawn) | inconclusive: 115%
14 | COC(=O)Cn1nnc(N2CCOCC2)n1 | inconclusive: 107%
15 | CCc1ccc(S(=O)(=O)NCC(O)COc2ccc(OC)cc2)cc1 (stereo not drawn) | inconclusive: 1.99%
16 | C=CCn1c(C)nc2c(sc3nc4c(cc32)COC(C)(C)C4)c1=O | inconclusive: 50.8%
17 | CC1CCCC(NC(=O)CNCc2ccccc2F)C1C (stereo not drawn) | inconclusive: 69.6%
18 | COc1cccc(Oc2ccc(OC)cc2C(=O)O)c1 | inconclusive: 177%
19 | O=C(Nc1ccc(F)cc1)c1ccc2nc[nH]c2c1 | inconclusive: 115%
20 | CCNc1ccc(S(=O)(=O)NCCN(C)C)cc1[N+](=O)[O-] | inconclusive: 95.9%

Row | SMILES | binding response (% of control)
21 | Cc1ccsc1CN(C)Cc1nc(C2CC2)no1 | inactive: 98.3%
22 | CCN(CC)c1ccc(NC(=O)CC2Oc3ccccc3NC2=O)c(C)c1 (stereo not drawn) | inactive: 90.7%
23 | Cc1c(Cl)cnc(NC(=O)COC(=O)c2cccc(S(=O)(=O)N3c4ccccc4CC3C)c2)c1Cl (stereo not drawn) | inactive: 102%
24 | C/C(=N\NC(=O)c1c(C)nc2ccccn12)c1ccc(N2CCOCC2)cc1 | inconclusive: 80.6%
25 | COc1ccc(NC(=O)C2CCC(CNc3c(N4CCCCC4)c(=O)c3=O)CC2)c(OC)c1 (stereo not drawn) | inconclusive: 75.3%
26 | CC(=O)/C(C#N)=C1\NC(=O)C(Cc2ccccc2C)S1 (stereo not drawn) | inconclusive: 88.1%
27 | CN1CCCC(OC(=O)c2cccc(Cl)c2)C1 (stereo not drawn) | inconclusive: 109%
28 | N#Cc1ccc[n+](CC(=O)c2ccc(NC(=O)c3ccccc3)cc2)c1 | inconclusive: 276%
29 | Cc1cc(=O)[nH]c(-c2ccccc2OC(F)(F)F)n1 | inconclusive: 92%
30 | COC(=O)c1ccc(OC)c(OC)c1Cl | inconclusive: 94.1%
31 | CCC1(C)Cc2ccccc2-c2nc(NCCCO)n(-c3ccccc3)c(=O)c21 (stereo not drawn) | inactive: 118%
32 | Cc1cc(=O)oc2cc(NS(=O)(=O)c3ccc(F)cc3)ccc12 | inconclusive: -64.4%
33 | CCc1n[nH]c(=S)n1/N=C/c1cc(Br)c(OC)cc1OC | inactive: 105%
34 | COC(C(=O)Nc1ccc(S(=O)(=O)Nc2c(C)cccc2C)cc1)c1ccccc1 (stereo not drawn) | inactive: 102%
35 | COc1ccc(OC)c(NC(=O)N2CCCC(C(=O)c3ccccc3OC)C2)c1 (stereo not drawn) | inactive: 102%
36 | O=C(NCc1cccnc1)C(=O)NCC(c1ccco1)N1CCOCC1 (stereo not drawn) | inconclusive: 106%
37 | CC(C(=O)N1CCCCCC1)c1ccc([N+](=O)[O-])cc1 (stereo not drawn) | inactive: 110%
38 | COc1ccc(Br)cc1S(=O)(=O)NCCCN1CCOCC1 | inactive: 102%
39 | O=C1CN(C(=O)c2ccc(F)c(S(=O)(=O)N3CCOCC3)c2)c2ccccc2N1 | inconclusive: 112%
40 | Cc1onc(-c2ccccc2Cl)c1C(=O)Nc1nn[nH]n1 | inactive: 51.8%

Row | SMILES | binding response (% of control)
41 | CC1CCCN(c2nc(N(C)c3ccccc3)nc(N)c2[N+](=O)[O-])C1 (stereo not drawn) | inconclusive: 185%
42 | Cc1[nH][nH]c(=O)c1C=NCc1cccnc1 | inconclusive: 110%
43 | O=C(CN1CCN(C(=O)C2COc3ccccc3O2)CC1)Nc1ccccc1 (stereo not drawn) | inconclusive: 160%
44 | CN1C(=O)/C(=C\c2ccncc2)SC1=Nc1ccccc1 | inactive: 96.3%
45 | Cc1c(NC(=S)N/C(=N/S(=O)(=O)c2ccccc2)c2ccccc2)c(=O)n(-c2ccccc2)n1C | inconclusive: 114%
46 | Cc1ccc(N/N=C(\C#N)C(=N)N2CCCCC2)cc1 | inconclusive: 106%
47 | COc1ccccc1CNC(=O)c1cc(=O)c2ccccc2o1 | inconclusive: 107%
48 | COc1ccc(NC(=O)/C(Cl)=C(/Cl)S(=O)Cc2ccc(Cl)cc2)cn1 (stereo not drawn) | inactive: 99.6%
49 | Cc1cc(C(F)F)nn1CC(=O)NC1C(=O)N2C(C(=O)O)=C(CSc3nnnn3C)CSC12 (stereo not drawn) | inactive: 132%
50 | CCN1CCCCC(=N/O)/C(=N/O)CCCC1 | inconclusive: 104%
51 | O=C(CN1c2cccc3cccc(c23)S1(=O)=O)Nc1ccccc1 | inconclusive: 89.3%
52 | Cc1nc(C(=O)NC2CCCCC2)sc1C1(C)CC(c2cccc([N+](=O)[O-])c2)=NO1 (stereo not drawn) | inconclusive: 110%
53 | O=C(CN1C(=O)C2C3C=CC(C4CC34)C2C1=O)NCc1ccco1 (stereo not drawn) | inconclusive: 92.5%
54 | CC1=C(C(=O)OCC2CCCO2)C(c2ccccc2)C2=C(CC(C)(C)CC2=O)N1 (stereo not drawn) | inactive: 95.5%
55 | CC(=O)c1ccc(S(=O)(=O)N2CCCCC2C(=O)O)cc1 (stereo not drawn) | inconclusive: 100%
56 | COc1ccccc1Nc1nc2ccccc2n2cnnc12 | inconclusive: 83%
57 | CCCn1c(N)c(C(=O)CSc2ncc(C(F)(F)F)cc2Cl)c(=O)[nH]c1=O | inconclusive: 118%
58 | O=C(N/N=C/c1ccc(Cl)c([N+](=O)[O-])c1)c1cc(-c2ccc3c4c(cccc24)CC3)n[nH]1 | inconclusive: 65.7%

Random excerpt: 3 compounds from above, in no set order.
Row | SMILES | binding response (% of control)
53 | O=C(CN1C(=O)C2C3C=CC(C4CC34)C2C1=O)NCc1ccco1 (stereo not drawn) | inconclusive: 92.5%
48 | COc1ccc(NC(=O)/C(Cl)=C(/Cl)S(=O)Cc2ccc(Cl)cc2)cn1 (stereo not drawn) | inactive: 99.6%
55 | CC(=O)c1ccc(S(=O)(=O)N2CCCCC2C(=O)O)cc1 (stereo not drawn) | inconclusive: 100%
